# System: GB126, GB239 and GB86 patient-derived cell lines
# Assay: In vitro single-cell RNA sequencing, analyses across the cell lines (pseudobulk differential gene expression, GSEA, non-cycling cells)
# Format: cell-based, human
# Conditions: ribociclib-treated vs DMSO
# Description: Patient-derived glioma stem cell lines (GSCs; GB126, GB86, and GB239) were established from resected GBM tumor tissue. Cell lines were genetically profiled for mutations and copy number aberrations using the IvySeq custom gene panel. […] GB239 was derived from a tumor sample included in this Phase 0 trial (tumor sample: 100-0039). All human GSCs were cultured as described previously.[12]
# Following the fifth day of drug exposure, cells were harvested, cryopreserved to be processed at a later point, or immediately processed for single-cell RNA sequencing (10x Genomics, 3’ version 3). The single-cell RNA sequencing data were then processed via cellranger count and Seurat. Briefly, cells were filtered out based on the following criteria: minimum number of genes detected >500 and <10 000 with a maximum percentage of mitochondrial genes set to 10%. Statistical assessment was made between the malignant proportions of each cell state using a 2-sided paired t-test.
# Descriptive statistics of the clinical data are included in Table 1. Comparisons between groups were conducted using a 2-sided or paired 2-sided t-test, where indicated. P < .05 was considered significant. Multiple hypothesis test corrections (ie, false discovery rate correction) were applied for snRNAseq pseudobulk differential expression analysis.
compound,measurement,setting,value
"CN(C)C(=O)c1cc2cnc(Nc3ccc(N4CCNCC4)cn3)nc2n1C1CCCC1 [Ribociclib, ribociclib]","programs enriched among upregulated genes, gene set enrichment analysis",,inflammatory response and epithelial-to-mesenchymal transition
same,"downregulated genes (number), pseudobulk differential gene expression","adj. P < .05, abs(log2FC) > 1",582

# From paper PMC13070491, “Single-nucleus transcriptomics, pharmacokinetics, and pharmacodynamics of CDK4/6 and mTOR inhibition in a Phase 0/1 trial of recurrent high-grade glioma” (Neuro-Oncology, 2025)
